Data from paper PMC12423330.
No constants are given. Whether binding was seen depends on the method and setting. In cells and extracts the contact can be indirect. Some binding calls cover weakened binding; strength is not graded here. One block for each molecule: values may come before it.

Amino acid sequences for entries named in this document (tags omitted).
UniProt Q8BRC6: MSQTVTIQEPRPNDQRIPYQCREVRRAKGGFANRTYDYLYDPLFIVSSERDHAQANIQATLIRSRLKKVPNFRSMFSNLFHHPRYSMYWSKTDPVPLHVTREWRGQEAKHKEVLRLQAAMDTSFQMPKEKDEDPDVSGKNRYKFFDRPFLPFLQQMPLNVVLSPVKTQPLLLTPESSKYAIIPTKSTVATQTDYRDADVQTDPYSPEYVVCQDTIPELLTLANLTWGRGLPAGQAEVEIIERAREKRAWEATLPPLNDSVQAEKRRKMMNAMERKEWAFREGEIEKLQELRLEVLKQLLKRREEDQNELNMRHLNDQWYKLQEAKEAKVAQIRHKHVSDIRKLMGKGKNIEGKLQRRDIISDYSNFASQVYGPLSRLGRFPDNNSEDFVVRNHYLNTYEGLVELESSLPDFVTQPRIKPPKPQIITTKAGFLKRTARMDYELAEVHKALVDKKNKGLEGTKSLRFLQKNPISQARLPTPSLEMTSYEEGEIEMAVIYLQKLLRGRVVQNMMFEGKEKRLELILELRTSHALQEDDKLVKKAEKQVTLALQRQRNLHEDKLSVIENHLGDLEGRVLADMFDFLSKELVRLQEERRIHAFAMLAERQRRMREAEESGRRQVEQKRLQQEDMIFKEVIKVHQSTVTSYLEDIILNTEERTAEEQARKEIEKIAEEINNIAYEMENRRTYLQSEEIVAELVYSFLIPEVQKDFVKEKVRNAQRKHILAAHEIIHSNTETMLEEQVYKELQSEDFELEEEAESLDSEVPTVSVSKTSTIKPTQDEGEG
UniProt A0JP43: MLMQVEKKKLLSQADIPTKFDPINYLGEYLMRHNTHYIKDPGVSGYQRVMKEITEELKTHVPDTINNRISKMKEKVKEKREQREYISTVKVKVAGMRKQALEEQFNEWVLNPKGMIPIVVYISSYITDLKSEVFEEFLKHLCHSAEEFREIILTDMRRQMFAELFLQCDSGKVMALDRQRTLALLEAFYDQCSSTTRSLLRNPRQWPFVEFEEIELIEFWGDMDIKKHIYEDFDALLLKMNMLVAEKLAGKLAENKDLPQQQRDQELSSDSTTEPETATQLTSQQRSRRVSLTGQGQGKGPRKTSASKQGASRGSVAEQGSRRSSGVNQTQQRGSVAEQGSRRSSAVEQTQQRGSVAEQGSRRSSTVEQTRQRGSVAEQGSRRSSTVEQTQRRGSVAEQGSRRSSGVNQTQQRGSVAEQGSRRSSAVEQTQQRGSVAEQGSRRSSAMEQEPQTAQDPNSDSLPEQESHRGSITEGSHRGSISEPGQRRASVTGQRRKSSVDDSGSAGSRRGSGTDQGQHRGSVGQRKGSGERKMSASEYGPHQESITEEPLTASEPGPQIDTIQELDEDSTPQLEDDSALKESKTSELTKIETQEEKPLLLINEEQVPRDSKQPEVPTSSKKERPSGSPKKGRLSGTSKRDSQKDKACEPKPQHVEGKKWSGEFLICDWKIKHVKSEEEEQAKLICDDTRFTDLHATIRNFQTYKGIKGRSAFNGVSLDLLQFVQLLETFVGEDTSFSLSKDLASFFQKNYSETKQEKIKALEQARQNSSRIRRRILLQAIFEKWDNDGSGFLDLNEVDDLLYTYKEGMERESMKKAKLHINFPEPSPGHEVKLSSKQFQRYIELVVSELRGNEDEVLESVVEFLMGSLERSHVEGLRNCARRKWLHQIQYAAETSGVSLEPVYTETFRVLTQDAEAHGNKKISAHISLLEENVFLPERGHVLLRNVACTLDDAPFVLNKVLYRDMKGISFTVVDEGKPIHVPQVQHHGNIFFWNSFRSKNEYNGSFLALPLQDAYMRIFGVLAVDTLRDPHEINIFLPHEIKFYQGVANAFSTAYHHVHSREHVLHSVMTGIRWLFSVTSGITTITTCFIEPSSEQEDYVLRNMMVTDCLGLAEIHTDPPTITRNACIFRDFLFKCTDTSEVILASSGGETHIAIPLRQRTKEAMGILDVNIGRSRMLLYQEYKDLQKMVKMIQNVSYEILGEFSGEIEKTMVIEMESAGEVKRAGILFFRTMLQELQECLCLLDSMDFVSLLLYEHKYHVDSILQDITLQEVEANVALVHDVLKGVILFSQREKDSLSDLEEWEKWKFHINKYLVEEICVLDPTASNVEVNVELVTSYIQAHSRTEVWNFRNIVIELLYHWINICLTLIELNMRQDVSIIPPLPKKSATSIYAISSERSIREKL
UniProt E9PY46: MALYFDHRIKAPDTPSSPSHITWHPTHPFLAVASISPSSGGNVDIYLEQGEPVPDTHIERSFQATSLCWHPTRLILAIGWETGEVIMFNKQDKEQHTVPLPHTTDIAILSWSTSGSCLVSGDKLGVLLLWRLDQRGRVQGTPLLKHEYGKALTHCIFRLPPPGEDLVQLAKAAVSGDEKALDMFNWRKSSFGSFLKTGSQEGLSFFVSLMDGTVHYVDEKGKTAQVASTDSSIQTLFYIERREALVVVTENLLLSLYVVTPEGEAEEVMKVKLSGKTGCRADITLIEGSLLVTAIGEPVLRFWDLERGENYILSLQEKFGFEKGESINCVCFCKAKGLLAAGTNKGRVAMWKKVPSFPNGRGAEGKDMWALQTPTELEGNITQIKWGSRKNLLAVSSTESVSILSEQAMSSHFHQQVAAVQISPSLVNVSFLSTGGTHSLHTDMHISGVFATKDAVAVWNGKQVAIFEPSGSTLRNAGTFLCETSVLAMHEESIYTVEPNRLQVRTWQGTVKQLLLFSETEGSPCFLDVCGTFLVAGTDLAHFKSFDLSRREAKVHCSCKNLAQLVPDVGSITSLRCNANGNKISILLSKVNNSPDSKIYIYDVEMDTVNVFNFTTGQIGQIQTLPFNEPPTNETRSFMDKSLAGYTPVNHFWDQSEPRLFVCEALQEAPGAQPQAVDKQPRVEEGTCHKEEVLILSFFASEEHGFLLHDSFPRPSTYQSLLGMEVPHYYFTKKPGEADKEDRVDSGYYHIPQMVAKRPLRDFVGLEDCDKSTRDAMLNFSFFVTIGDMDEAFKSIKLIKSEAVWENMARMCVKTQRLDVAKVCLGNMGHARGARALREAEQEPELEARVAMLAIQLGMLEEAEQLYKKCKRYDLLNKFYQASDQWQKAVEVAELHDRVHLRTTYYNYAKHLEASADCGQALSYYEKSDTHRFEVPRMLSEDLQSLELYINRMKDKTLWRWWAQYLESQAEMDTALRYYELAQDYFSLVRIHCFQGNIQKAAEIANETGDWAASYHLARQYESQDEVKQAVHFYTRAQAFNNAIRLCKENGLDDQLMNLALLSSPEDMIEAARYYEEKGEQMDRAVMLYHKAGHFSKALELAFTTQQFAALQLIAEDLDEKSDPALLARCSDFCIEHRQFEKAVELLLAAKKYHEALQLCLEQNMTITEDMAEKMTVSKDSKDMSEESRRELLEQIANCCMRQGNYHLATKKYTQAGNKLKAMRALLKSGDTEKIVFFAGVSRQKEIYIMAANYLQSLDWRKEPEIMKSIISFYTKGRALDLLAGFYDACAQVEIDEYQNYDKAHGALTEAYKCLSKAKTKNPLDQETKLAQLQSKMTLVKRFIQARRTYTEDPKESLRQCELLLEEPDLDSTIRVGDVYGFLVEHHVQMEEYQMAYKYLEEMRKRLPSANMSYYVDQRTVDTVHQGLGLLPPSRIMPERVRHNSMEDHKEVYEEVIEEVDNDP

Columns and labels:
[1] = molecular target: CFAP91-BioID2-3×FLAG (mouse) (UniProt Q8BRC6); assay: co-IP; IP with an anti-FLAG antibody from testis lysate of Cfap91-/- TG and WT males, then immunoblotting
[2] = molecular target: CFAP91-BioID2-3×FLAG (mouse) (UniProt Q8BRC6); assay: as above; remark: listed apart in the source
[3] = molecular target: CFAP91-BioID2-3×FLAG (mouse) (UniProt Q8BRC6); assay: co-IP; IP from postnatal day 15 (P15) testes of WT and Cfap91-/- TG males, then immunoblotting
[4] = molecular target: EFCAB5 expressed in HEK293T cells (UniProt A0JP43); assay: co-IP; EFCAB5 and RGS22 expressed in HEK293T cells; IP and immunoblotting in the presence and absence of Ca2+

binding [1]: binds
Molecule: IFT140 (from UniProt E9PY46 1-1464)

binding [2]: binds | binding [3]: binds
B1: CFAP251 (protein, UniProt E9Q743 1-1299)
chain: MSDTEENPLEESRESGEMEEEKEEKKEEEEEEEEGEKEKEEEEEEEKGKEEEKEEEKEEGKEEEKKEEEEEKGKKEEEEEEEEEGKGKEEEKEEEKEEEEKEEEKEKEEEEEEEGKGKEEEEEGKEEEEEEKEEEEKEEEKEEEEEEEEEKEEYNPSFEEDALQQSLTEGSLSWEESQEDGEGLEEWVEKEEQREGEEVRGEEESEVRGREEEEGWEEEKSGEEEKSEESERSKERGGEEEGQEKEEAEHEGEREEGREEEEKEKSVEREEEEEEEDTETTETKAGRAKEEKKEKQNKTALVDNIVISHEPPRSSSSLADSPEVSQIYKDNSMKVDDTEEASQKPEDILAQGKDEARLSLEERRKLFQSKGLSAEESLVSVSTEDTLFQKEEDSKVYPLSMTWSFGWNSSLPVYYMREDRRVILYTCAHTAIMYDVVRNTQYHLQGHPNIISCLCVSEDRRWIATADEGPDCLIIIWDSFTGIPVHTIFDSCPEGNGMRSIAITRDSKFLATISDSATQKVCIWKWTLAVETPACTLELPKEYGFQDNLVFNPANNKELVSNSKTQAIYYCWFEDKGILAHSAPVLTEKTFNKLVGKFSQSVFHLKLPQVLSATKEGKLVVWDIHYPSSTSSSAISAFPFIKPRKLVHLQKEAITVLMTIDSYIVTGDIKGNIKFYDHTLSVVNWYSNFKLGAIRTLSFSKTIPSLPTEKSNLPTDCTLRGDLFVVRNFIIGTFDATVYHMTVDGTKLEKLFVEPRDAVYAVSCHPYQPLIAVGSVCGMIKVWDFEKKVYLFSRTFEKGLGVQCLTYNPEGALLGAGFTEGTVYILDAMSLENESPEPFKYSKSSVSHCCFSHDSNYMATADVNFTVAVYMVVVKNGQRVWEYLARLRSHQNSIQSLLFGVHLDSNEPRLLSLGKDRFLIEYNLVKSCKDHLDVLDVHRTDQGNYPTCMIWYPPLTKELFLLICNSGYKVKLFNATTKMCRKTLLGPAYGSPIEHAQVLPVKSTLELQKRYLVFINKDKVGLQILPVDGNPHKTCAIVCHPNGVAGMALSYDGRFAFTAGGQDRSVVQWKINLGALEAAVSLGGEDLTPFYGLVSGGREGKFYRELEDYFYYSQIRSQGIDTMETRQVSEHICLSELPFVMRAIGFYPSEEKIEDMFNEIKFSEYVETGKLIDKINLPDFLKVYLNHRPPFGNTMDGIQNSFNVLGYTNSEGKKAIRREDFLNLLLTKGEHMTEEEMIDCFSTLFGLTPEGWKSEPAATCINGPEICLQKELPEEITAEIFTTEILGLTLSDSSEQLIQ

binding [4]: binds
B2: RGS22 expressed in HEK293T cells (protein, UniProt G3UYX5 1-1258)
chain: MPEKRLSAEPPEVTEEEFENYLATDNFLVDYFNEFLSLPTFPEAIRFNVDYGVFEVVNDAPQLLEKQLKKILQNQQPRNPIYDVVRKGKSDSKSTQKSVPCEDEAINVNYSIMCLKREQGINWIKRERLPAFLESDCYFEYRLAKLISQATWSSTGMNFIVGTNFTPWILRRPPAPPPPSTDEDNYMIMKKFYVSLGQASYTQTKDWFTLAKESENTVTMASLPCCIPHHQTASPVIATASEIFDDGVHPRTIKSLSKSSKAVSELDEEEEGSISMKDSPSQALLRVYLEKKGGKERNLTLHFSSVEEFLDAYIIFILREAIQHITGQSLSDTPEYINYYKVSHVIFDKVPPVPSNKAIVSPPVEMVEEISKDRLENVSLSSESESIGPESRADWCISHRTYDIGNRREFERFKKFLKGTLGERYWWLWMDIERLKVLKDPERHQRHLEKMKKCYLVSSGERYLSAEILSKFKLLHGSRWTADHLKNIQAEVLKPLLLYWAPRFCVTHSASAKNASTELKFWRLRQEKPRKDVDPFPQMATLLPLRPKSCIPQTPEVQGEEINLFQPSKFKKLSKINAGTQQLGRSEPLNAVSSKDGGLEKGSKRLPESTTVVRLTSFTDISECLKPQLERKYTYTEEHNVKTVSNVGALGGFDMENLLQSLYVENRAGFFFTKFCENSGNKLWKHSVYFWFDLQAYHQLFYQETLQPFKVCKQAQYLFATYIAPSASFDIGLHQEGKKDIYMKIQPPFEDLFDTAEEFILLSLLEPWTQMVMSDKMAYKKVELQEETRQLDSACFRKLHALHKETISKKAEDTTGYAMAKLSLSDVSKQTEYWLNVPEGYKHFTFTDLLNNKLEFEHFRQFLESHSSSLDLMCWIDIEQFRRIIFKDQKQREEKSIYIKNKYLNKKYFFGPRSPASLHQQNQIMLLSGGWGRILHEQLDASVLVEIQKHVLNRLENVWLPLFLSSEQFASRQKIKTQMKDIADELLLQRHDRKIGVWKPVESKWISSSCEIIAFRKALLNPVIARQFQRFVALKGDLLENGVLFWQEVQKFKDLCHSHCDESIIHKKITTIINCFINSYIPPALQIDIPVEQAQKILEHRKELGPYVFREAQMTIFGVLFKFWPQFCEFRKNLTDEKIMSVLERRQEHKQKRKASDTEEDKAGKSGVKQYASTTGSLTKPVLGSESLLVLQSYGRQPTWCYSKYIEALEQERILLKIQEEVERKMFTGTSSFTNLLKPSTGSALSLKKNVSLHSIQR
